Laboratory results: PMC3694003 (PLoS ONE, 2013)

experiment: general procedure: Boc solid-phase peptide synthesis; HBTU (in situ neutralization); conditions: oxidative folding step, analytical RP-HPLC

Q: With [T20K] kalata B1 as the substance, how does the “final HPLC purity” value read?
A: Its value is greater than 95%.

same assay, conditions: oxidative folding step, peak area of correctly folded peptide vs total HPLC peak area

Q: Which oxidative folding yield does the source give for [G18K] kalata B1 here?
A: Its oxidative folding yield is 22%.

Q: With [N29K] kalata B1 as the substance, how does the oxidative folding yield read?
A: Its oxidative folding yield is 29%.

Q: Which oxidative folding yield does the source give for [V10K] kalata B1 here?
A: Its oxidative folding yield is 16%.

Q: Which oxidative folding yield does the source give for [T20K] kalata B1 here?
A: The oxidative folding yield was 40%.

Q: For [V10A] kalata B1, which oxidative folding yield is on record?
A: The oxidative folding yield was 21%.

Q: Which oxidative folding yield does the source give for [T8K] kalata B1 here?
A: Its oxidative folding yield is 15%.
